Measurements reported in PubChem BioAssay AID1671195 (Yale University, 2021).
This is a random part of about 22,000 deposited reagents. In the full data, about 1,510 (6.9%) were called active. 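Active includes knockdowns raising or lowering LDL uptake; positive z-scores mean more uptake, negative mean less.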 Entries without a mark were called inactive. Reagents against one gene are numbered here.

Screen: 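Knockdowns that increase or decrease uptake of fluorescent LDL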 (primary screen)
System: human Huh7 hepatoma cells
Reagent: siRNA pool against human genes, 18 nM
Timing: about 2 to 2.5 days of knockdown, then 8 h LDL uptake
Conditions: DiI-labelled LDL at 30 µg/ml for 8 h, in lipoprotein-deficient serum medium
Detection: 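Per-cell DiI-LDL intensity by automated imaging; well means scaled to the plate median and given as a robust z-score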
Scale: robust z-score: higher = more LDL uptake after knockdown
Rule for the call: 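Active when two or more replicates show a robust z-score above 2 or below -2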

no.	Target gene	pool no.	robust z-score, replicate 1	robust z-score, replicate 2	robust z-score, replicate 3
1	VSTM5 (V-set and transmembrane domain containing 5)	1	0.413	0.917	1.34
2	KDM3A (lysine demethylase 3A)	1	-0.397	-0.347	-0.414
3	RALBP1 (ralA binding protein 1)	1	1.02	1.03	0.745
4	PPIAP74 (peptidylprolyl isomerase A pseudogene 74)	1	0.657	-0.21	-0.25
5	SOX3 (SRY-box transcription factor 3)	1	0.0358	0.797	-0.215
6	VTI1B (vesicle transport through interaction with t-SNAREs 1B)	1	0.448	0.814	-0.238
7	POLR2F (RNA polymerase II, I and III subunit F)	1	-1.76 (active)	-2.06	-1.67
8	OR9G4 (olfactory receptor family 9 subfamily G member 4)	1	1.28	1.58	1.34
9	CYP1A1 (cytochrome P450 family 1 subfamily A member 1)	1	0.329	0.59	0.513
10	LINC01270 (long independently transcribed non-coding RNA 1270)	1	7.05 (active)	7.19	5.9
11	MTUS1 (microtubule associated scaffold protein 1)	1	0.619	0.599	-0.36
12	PIK3CA	1	-1.42	-1.63	-1.78
13	ENTPD6 (ectonucleoside triphosphate diphosphohydrolase 6)	1	-0.129	1.14	-0.0633
14	PCSK1N (proprotein convertase subtilisin/kexin type 1 inhibitor)	1	-0.348	-0.831	-0.396
15	LRIF1 (ligand dependent nuclear receptor interacting factor 1)	1	-0.758	-1.2	-1.07
16	METTL6 (methyltransferase 6, tRNA N3-cytidine)	1	-0.157	-0.794	-0.657
17	SHISA4 (shisa family member 4)	1	-1.18	-0.605	-1.31
18	PAX1 (paired box 1)	1	-0.693	-0.557	-0.289
19	STX1A (syntaxin 1A)	1	0.25	-0.266	-0.196
20	GNAT3 (G protein subunit alpha transducin 3)	1	0.476	2.16	0.753
21	DHX29 (DExH-box helicase 29)	1	-0.692	-0.465	0.603
22	ALOX15B (arachidonate 15-lipoxygenase type B)	1	-0.546	-0.571	-0.14
23	ASPG (asparaginase)	1	-0.0407	-0.23	-0.0927
24	SLC38A6	1	0.0672	-0.0601	0.704
25	ZNF117 (zinc finger protein 117)	1	-0.174	-0.309	-0.66
26	ZNF117 (zinc finger protein 117)	2	-1.16	-1.27	-1.52
27	IGHV1OR15-1 (immunoglobulin heavy variable 1/OR15-1 (non-functional))	1	2.23 (active)	1.65	2.58
28	LOC401616 (retired record)	1	0.803	-1.88	0.157
29	IFNB1 (interferon beta 1)	1	2.25 (active)	2.64	2.64
30	ME2 (malic enzyme 2)	1	1.51	2	1.34
31	SACK1H (scaffolding CK1 anchoring protein H)	1	-0.739	-1.2	-1.06
32	NUB1 (negative regulator of ubiquitin like proteins 1)	1	-0.555	-0.772	0.187
33	LOC440845 (retired record)	1	0.4	0.186	0.0763
34	RPL5P29 (ribosomal protein L5 pseudogene 29)	1	0.267	0.564	0.331
35	RPL31P4 (ribosomal protein L31 pseudogene 4)	1	0.0408	-0.377	-0.228
36	PDS5B (PDS5 cohesin associated factor B)	1	0.185	1.82	0.433
37	LOC400933 (retired record)	1	-0.948	-1.14	-0.703
38	LOC440402 (retired record)	1	-0.538	-0.0562	-0.345
39	LOC389772 (retired record)	1	1.38	0.776	1.45
40	RAB2B (RAB2B, member RAS oncogene family)	1	0.552	-0.167	0.702
41	OR13H1 (olfactory receptor family 13 subfamily H member 1)	1	-0.657	-0.883	-0.689
42	ACTL6A (actin like 6A)	1	-1.2	-0.944	-0.0511
43	ARPC4 (actin related protein 2/3 complex subunit 4)	1	-0.649	-0.431	-0.562
44	PTGER4 (prostaglandin E receptor 4)	1	-0.363	0.546	-0.31
45	LINC00671 (long independently transcribed non-coding RNA 671)	1	-1.01	-1.1	-0.33
46	ACP5 (acid phosphatase 5, tartrate resistant)	1	0.147	-0.0128	0.381
47	TNIP2 (TNFAIP3 interacting protein 2)	1	0.304	0.671	0.694
48	RASSF6 (Ras association domain family member 6)	1	-0.192	-0.182	0.477
49	HSPA12A (heat shock protein family A (Hsp70) member 12A)	1	1.09	0.788	1.18
50	CTSG (cathepsin G)	1	1.49	0.221	1.08
51	HSD17B14 (hydroxysteroid 17-beta dehydrogenase 14)	1	0.939	0.701	0.918
52	STRA8 (stimulated by retinoic acid 8)	1	-2.51 (active)	-2.68	-2.29
53	PURA (purine rich element binding protein A)	1	0.4	0.713	0.824
54	ACVR2B (activin A receptor type 2B)	1	-1.53	-1.58	-1.15
55	TM4SF18 (transmembrane 4 L six family member 18)	1	-0.129	0.683	0.862
56	LINC00921 (long independently transcribed non-coding RNA 921)	1	0.00593	0.0498	0.104
57	H1-10-AS1 (H1-10 antisense RNA 1)	1	1.47	1.15	1.26
58	EXOC3L4 (exocyst complex component 3 like 4)	1	-0.106	-1.21	-1.31
59	SERPINA7 (serpin family A member 7)	1	1.33 (active)	4.65	2.79
60	GPRC5D (G protein-coupled receptor class C group 5 member D)	1	-0.043	0.046	0.172
61	SLC6A8	1	-0.184	-0.217	0.109
62	LINC01128 (long independently transcribed non-coding RNA 1128)	1	-0.101	-0.211	-0.159
63	SEC61G (SEC61 translocon subunit gamma)	1	-2.1	-0.476	-1.56
64	KIF13B (kinesin family member 13B)	1	3.68 (active)	3.64	3.15
65	FOS (Fos proto-oncogene, AP-1 transcription factor subunit)	1	0.428	0.29	-0.354
66	BNIP3L (BCL2 interacting protein 3 like)	1	0.0823	0.756	1.64
67	NCR2 (natural cytotoxicity triggering receptor 2)	1	1.46	0.248	0.933
68	RSRC1 (arginine and serine rich coiled-coil 1)	1	0.232	-1.92	-1.27

Called active, of those listed so far:
Target gene	pool no.	robust z-score, replicate 1	robust z-score, replicate 2	robust z-score, replicate 3
POLR2F (RNA polymerase II, I and III subunit F)	1	-1.76 (active)	-2.06	-1.67
LINC01270 (long independently transcribed non-coding RNA 1270)	1	7.05 (active)	7.19	5.9
IGHV1OR15-1 (immunoglobulin heavy variable 1/OR15-1 (non-functional))	1	2.23 (active)	1.65	2.58
IFNB1 (interferon beta 1)	1	2.25 (active)	2.64	2.64
STRA8 (stimulated by retinoic acid 8)	1	-2.51 (active)	-2.68	-2.29
SERPINA7 (serpin family A member 7)	1	1.33 (active)	4.65	2.79
KIF13B (kinesin family member 13B)	1	3.68 (active)	3.64	3.15
